# ± gives the standard deviation of the averaged measurements. Only a part is listed here, and it is no random draw. Most values lie at the level of the controls, where differences are scatter.
# The chains behind the UniProt entries cited, without tags or fusion partners. Where a name states a change or a piece, a line headed by the entry shows the natural chain unless it says otherwise.
# UniProt Q04760: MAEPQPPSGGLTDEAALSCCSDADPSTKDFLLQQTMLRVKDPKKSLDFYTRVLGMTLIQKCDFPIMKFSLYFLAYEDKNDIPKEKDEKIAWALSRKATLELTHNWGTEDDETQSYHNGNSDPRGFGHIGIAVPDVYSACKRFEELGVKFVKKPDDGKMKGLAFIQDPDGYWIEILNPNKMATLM
# UniProt Q01650: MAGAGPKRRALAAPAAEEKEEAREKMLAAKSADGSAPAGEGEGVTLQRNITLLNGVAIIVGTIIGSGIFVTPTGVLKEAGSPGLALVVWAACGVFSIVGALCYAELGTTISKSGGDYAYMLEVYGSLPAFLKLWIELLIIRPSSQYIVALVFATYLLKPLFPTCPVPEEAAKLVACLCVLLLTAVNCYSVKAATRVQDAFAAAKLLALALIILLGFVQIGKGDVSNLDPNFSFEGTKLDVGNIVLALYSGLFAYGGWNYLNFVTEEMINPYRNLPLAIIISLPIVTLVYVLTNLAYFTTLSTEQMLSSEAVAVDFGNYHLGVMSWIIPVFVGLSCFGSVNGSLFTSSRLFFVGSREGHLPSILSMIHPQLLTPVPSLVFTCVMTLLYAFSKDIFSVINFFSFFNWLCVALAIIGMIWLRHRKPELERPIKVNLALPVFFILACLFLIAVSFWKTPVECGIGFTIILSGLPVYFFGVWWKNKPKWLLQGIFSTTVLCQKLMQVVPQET
# UniProt Q13188: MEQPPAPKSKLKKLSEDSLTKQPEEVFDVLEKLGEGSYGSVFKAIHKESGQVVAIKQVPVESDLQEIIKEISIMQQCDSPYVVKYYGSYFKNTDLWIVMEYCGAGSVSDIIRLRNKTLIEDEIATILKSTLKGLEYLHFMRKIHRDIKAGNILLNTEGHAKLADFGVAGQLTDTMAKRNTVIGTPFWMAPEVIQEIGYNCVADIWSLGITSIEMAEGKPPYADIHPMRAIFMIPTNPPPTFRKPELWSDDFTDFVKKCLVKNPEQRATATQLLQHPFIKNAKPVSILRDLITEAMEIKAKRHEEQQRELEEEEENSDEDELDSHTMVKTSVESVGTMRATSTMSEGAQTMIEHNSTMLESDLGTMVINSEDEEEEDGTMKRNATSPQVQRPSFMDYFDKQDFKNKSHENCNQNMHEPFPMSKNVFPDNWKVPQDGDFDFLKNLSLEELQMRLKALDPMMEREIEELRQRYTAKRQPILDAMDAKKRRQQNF
# UniProt Q06330: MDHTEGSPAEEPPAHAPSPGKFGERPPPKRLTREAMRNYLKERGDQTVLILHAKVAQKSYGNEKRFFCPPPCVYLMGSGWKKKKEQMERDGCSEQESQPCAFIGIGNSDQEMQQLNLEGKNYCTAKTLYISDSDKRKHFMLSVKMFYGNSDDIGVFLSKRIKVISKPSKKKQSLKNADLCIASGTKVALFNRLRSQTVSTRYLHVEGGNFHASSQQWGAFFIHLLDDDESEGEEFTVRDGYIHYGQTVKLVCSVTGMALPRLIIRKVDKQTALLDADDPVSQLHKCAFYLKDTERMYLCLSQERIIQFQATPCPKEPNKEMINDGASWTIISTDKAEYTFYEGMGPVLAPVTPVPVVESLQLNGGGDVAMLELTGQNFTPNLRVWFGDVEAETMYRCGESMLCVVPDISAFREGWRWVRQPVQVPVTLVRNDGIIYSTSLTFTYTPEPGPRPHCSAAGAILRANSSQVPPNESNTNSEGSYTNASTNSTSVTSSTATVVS
# UniProt Q13049: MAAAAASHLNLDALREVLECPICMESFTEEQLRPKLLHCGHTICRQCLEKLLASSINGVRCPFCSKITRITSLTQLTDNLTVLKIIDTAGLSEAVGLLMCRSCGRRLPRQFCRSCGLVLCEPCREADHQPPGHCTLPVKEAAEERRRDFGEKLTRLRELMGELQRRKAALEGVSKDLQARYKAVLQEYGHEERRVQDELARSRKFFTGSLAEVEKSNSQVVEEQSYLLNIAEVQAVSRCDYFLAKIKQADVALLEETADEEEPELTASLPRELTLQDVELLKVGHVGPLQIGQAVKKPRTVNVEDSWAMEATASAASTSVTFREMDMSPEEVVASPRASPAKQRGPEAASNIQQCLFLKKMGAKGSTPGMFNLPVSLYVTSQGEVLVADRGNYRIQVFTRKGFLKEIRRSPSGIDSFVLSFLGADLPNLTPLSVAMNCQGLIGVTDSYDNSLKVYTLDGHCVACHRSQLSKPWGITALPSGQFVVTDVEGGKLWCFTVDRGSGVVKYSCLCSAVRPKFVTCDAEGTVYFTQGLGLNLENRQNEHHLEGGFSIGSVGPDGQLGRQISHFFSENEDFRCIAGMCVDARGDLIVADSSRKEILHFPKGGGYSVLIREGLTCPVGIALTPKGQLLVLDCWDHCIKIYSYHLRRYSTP
# UniProt Q03111: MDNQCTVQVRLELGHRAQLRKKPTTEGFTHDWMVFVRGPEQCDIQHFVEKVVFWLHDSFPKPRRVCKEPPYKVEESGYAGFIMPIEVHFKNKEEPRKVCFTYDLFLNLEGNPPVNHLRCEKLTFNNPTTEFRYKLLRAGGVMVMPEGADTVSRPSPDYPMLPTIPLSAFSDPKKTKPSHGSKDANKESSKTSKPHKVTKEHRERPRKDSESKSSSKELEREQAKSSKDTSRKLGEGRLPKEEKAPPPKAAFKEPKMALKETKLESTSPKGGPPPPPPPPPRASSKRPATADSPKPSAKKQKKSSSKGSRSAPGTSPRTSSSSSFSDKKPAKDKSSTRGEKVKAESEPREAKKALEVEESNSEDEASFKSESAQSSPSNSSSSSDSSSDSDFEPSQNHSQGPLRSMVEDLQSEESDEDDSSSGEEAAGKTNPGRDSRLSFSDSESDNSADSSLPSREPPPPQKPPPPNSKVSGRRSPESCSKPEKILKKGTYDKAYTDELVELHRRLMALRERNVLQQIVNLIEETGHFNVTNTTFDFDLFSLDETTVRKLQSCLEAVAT
# UniProt Q13367: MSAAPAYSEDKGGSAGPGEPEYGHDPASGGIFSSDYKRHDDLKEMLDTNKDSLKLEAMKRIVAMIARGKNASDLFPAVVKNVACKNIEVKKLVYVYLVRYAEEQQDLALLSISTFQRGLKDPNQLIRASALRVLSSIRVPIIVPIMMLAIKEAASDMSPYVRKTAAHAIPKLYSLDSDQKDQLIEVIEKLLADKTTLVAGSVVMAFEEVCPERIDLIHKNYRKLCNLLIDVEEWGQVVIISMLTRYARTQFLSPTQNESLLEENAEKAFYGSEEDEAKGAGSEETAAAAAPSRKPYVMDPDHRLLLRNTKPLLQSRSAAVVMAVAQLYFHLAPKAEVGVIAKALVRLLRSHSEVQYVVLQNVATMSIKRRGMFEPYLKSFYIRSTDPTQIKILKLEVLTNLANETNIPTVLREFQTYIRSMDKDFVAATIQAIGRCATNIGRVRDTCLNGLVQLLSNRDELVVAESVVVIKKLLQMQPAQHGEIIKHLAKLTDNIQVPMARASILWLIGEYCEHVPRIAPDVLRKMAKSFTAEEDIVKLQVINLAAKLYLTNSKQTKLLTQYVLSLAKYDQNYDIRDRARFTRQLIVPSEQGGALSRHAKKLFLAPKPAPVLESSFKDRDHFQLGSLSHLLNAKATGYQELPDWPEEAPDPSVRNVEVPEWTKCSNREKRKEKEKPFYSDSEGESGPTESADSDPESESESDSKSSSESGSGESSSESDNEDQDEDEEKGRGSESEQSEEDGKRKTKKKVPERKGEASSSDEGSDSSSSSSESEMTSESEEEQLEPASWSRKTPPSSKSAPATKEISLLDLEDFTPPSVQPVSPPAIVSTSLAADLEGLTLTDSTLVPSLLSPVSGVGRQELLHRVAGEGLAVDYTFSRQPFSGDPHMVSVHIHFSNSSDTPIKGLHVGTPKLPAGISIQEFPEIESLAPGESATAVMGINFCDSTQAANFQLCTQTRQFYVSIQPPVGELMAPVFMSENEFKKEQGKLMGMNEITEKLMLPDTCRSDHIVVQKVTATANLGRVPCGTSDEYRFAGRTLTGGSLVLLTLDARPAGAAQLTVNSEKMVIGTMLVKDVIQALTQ
# UniProt Q06481, whole entry: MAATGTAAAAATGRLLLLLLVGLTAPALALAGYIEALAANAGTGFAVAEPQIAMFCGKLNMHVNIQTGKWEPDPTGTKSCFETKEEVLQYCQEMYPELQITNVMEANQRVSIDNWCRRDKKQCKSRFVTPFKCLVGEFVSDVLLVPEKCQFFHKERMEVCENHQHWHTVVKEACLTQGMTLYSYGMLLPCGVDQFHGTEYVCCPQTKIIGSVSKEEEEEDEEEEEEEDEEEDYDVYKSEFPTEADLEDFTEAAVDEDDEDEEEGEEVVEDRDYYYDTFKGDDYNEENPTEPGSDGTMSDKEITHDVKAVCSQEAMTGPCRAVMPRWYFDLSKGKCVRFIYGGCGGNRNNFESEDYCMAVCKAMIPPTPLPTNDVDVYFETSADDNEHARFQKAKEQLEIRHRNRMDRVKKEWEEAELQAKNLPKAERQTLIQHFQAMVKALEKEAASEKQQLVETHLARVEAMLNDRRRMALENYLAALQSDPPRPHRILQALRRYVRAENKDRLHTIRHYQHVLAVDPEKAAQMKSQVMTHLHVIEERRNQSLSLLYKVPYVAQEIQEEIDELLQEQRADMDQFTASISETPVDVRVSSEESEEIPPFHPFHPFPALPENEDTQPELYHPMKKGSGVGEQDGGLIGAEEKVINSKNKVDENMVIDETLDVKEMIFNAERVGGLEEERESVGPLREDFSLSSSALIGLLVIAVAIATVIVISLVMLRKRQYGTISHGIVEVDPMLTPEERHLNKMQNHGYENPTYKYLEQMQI
# UniProt Q12907: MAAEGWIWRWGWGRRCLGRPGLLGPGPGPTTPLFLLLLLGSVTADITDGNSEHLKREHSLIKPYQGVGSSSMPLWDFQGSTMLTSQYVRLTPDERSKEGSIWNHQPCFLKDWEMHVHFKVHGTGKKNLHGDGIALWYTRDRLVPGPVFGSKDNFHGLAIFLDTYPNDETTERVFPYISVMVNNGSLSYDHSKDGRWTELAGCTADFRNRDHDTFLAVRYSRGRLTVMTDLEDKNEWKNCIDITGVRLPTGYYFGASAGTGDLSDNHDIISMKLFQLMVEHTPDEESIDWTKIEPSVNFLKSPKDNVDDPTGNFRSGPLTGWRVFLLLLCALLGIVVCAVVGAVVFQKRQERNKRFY
# UniProt Q02127: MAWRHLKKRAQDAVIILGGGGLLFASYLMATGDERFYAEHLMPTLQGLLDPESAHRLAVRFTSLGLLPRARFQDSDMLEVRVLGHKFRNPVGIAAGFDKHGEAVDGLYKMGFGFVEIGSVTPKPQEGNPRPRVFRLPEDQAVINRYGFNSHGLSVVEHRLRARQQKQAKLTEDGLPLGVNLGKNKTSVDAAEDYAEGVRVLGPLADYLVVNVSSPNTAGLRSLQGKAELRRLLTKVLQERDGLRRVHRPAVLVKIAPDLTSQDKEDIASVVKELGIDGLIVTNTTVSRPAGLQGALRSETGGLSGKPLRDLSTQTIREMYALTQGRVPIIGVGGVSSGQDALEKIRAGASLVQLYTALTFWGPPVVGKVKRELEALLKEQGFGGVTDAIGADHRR
# UniProt Q01813: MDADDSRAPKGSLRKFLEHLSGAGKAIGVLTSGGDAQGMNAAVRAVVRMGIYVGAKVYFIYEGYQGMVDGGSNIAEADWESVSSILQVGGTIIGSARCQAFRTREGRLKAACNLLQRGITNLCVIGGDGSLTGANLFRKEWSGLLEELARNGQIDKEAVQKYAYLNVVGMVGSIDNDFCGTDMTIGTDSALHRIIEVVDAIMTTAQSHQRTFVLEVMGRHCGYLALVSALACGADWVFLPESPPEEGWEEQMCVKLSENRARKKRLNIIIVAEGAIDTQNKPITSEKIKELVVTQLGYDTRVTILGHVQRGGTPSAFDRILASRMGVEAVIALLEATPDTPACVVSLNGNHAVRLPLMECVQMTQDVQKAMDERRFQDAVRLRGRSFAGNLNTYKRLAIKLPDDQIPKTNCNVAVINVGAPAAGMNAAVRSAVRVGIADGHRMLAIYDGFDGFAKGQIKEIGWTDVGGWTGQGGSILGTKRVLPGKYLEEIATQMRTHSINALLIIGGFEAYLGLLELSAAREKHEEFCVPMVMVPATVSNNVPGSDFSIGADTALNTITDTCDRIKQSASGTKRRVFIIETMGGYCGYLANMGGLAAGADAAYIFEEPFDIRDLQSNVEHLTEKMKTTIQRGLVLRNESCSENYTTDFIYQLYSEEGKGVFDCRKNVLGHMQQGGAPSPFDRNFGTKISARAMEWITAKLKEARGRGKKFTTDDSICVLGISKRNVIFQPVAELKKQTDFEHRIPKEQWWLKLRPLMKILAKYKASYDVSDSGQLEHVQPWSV
# UniProt Q13371: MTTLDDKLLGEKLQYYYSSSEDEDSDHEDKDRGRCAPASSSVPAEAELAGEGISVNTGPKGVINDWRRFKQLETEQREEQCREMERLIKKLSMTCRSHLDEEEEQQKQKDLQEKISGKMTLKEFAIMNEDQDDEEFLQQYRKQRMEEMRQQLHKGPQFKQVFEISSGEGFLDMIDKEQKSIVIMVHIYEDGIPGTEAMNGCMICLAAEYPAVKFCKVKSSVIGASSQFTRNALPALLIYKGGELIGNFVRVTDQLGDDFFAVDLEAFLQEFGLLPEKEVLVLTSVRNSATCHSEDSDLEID
# Compound: Nc1ncnc2c1ncn2[C@@H]1O[C@H](COP(=O)(O)OP(=O)(O)OP(=O)(O)O)[C@@H](O)[C@H]1O [adenosine triphosphate]
# Assay: NP40-soluble protein abundance relative to vehicle (solubility fold change) (ratio); higher = more soluble protein in presence of ATP
# In short: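 Jurkat crude lysate (Dounce-homogenised) was treated with eight concentrations from 0.1 to 10 mM for 10 min at room temperature, then 3 min at 37 °C. It was solubilised with 0.8% NP40 and benzonase (60 min, 4 °C) and ultracentrifuged, and the supernatant was TMT-labelled for LC-MS/MS. Intensities were vsn-normalised, and the value is the fold change against the NP40-processed vehicle per replicate, from three independent experiments.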
Target,NP40-soluble protein abundance (concentration: 0.1mM),NP40-soluble protein abundance (concentration: 0.5mM)
UniProt Q04760 and related entries,0.877 ± 0.084,0.828 ± 0.13
UniProt Q01130 and related entries,1.04 ± 0.031,1.22 ± 0.057
UniProt Q12979-2|A0A0G2JQ41|Q12979 and related entries,1.05 ± 0.071,1.03 ± 0.064
SNX1 (UniProt Q13596),1.02 ± 0.04,1.03 ± 0.039
UniProt Q02447-3,0.968 ± 0.013,0.958 ± 0.024
SLC7A5 (UniProt Q01650),1 ± 0.044,0.995 ± 0.095
UniProt Q13188 and related entries,0.9984 ± 0.0013,0.983 ± 0.038
UniProt Q06330 and related entries,1.02 ± 0.034,1 ± 0.075
UniProt Q02086 and related entries,0.984 ± 0.046,1 ± 0.061
ALDH6A1 (UniProt Q02252),1.02 ± 0.055,1.03 ± 0.044
TRIM32 (UniProt Q13049),0.968 ± 0.049,1.02 ± 0.053
MLLT1 (UniProt Q03111),1.01 ± 0.033,0.972 ± 0.038
PLAUR (UniProt Q03405),1.13 ± 0.13,1.1 ± 0.17
UniProt Q13367 and related entries,1.09 ± 0.042,1 ± 0.099
UniProt Q12797 and related entries,1.01 ± 0.1,1.04 ± 0.061
EXOSC10 (UniProt Q01780),1.05 ± 0.029,1.06 ± 0.056
UniProt Q06481 and related entries,0.915 ± 0.17,0.96 ± 0.17
LMAN2 (UniProt Q12907),1.05 ± 0.055,1.04 ± 0.036
DSG2 (UniProt Q14126),0.972 ± 0.056,0.951 ± 0.044
DHODH (UniProt Q02127),1.05 ± 0.039,1.04 ± 0.067
PFKP (UniProt Q01813),1.04 ± 0.06,1.04 ± 0.056
UniProt Q14141,0.987 ± 0.042,1.01 ± 0.087
PDCL (UniProt Q13371),1.02 ± 0.057,0.975 ± 0.047

# Two consecutive entries out of the list so far:
Target,NP40-soluble protein abundance (concentration: 0.1mM),NP40-soluble protein abundance (concentration: 0.5mM)
UniProt Q04760 and related entries,0.877 ± 0.084,0.828 ± 0.13
UniProt Q01130 and related entries,1.04 ± 0.031,1.22 ± 0.057
